Data set [1] can be described thus: Fmoc solid-phase peptide synthesis; chloromethyl, oxymethyl or benzhydrylamine resin; 4-(oxymethyl)phenylacetamidomethyl resin; BHA resin (Example 53). The settings on record: whole synthesis; for isolated yield: scale of the general procedure 0.5 mmol (Example 53).
Data set [2] in a line: general procedure: peptide synthesis; chloromethyl, oxymethyl or benzhydrylamine resin; 4-(oxymethyl)phenylacetamidomethyl resin; BHA resin (Example 53). To be noted: for isolated mass / isolated yield: whole synthesis; for isolated yield: scale of the general procedure 0.5 mmol (Example 53); for step yield: late stage modification step.

HELM strings list residues between dots; [ac] is acetyl, [am] amide, other brackets name non-standard units. Square brackets hold non-standard residues; d marks the D form. * marks the point of attachment. Fmoc = O=C(OCC1c2ccccc2-c2ccccc21)*

As to Fmoc-WLGRED-OH, in data set [1], the isolated mass worked out at 162 mg and the isolated yield is listed as 32.5%.

On to Fmoc-WLGREDGSE-OH, for which, in data set [1], the isolated mass was 180 mg and the isolated yield turned out to be 28.4%.

In data set [1], Fmoc-WLGRE[dD]-OH registered an isolated mass of 180 mg and an isolated yield of 36.0%.

In data set [1], Fmoc-WLGR[dE]D-OH came in with an isolated mass of 178 mg and an isolated yield of 35.7%.

In data set [1], Fmoc-W[dL]GRED-OH yielded an isolated mass of 119 mg and an isolated yield of 23.9%.

In data set [1], Fmoc-[dW]LGRED-OH returned an isolated mass of 138 mg and an isolated yield of 27.7%.

For the substance H-FLGREDGSE-OH, in data set [2], the isolated mass stood at 232 mg and the isolated yield stood at 46.0%.

In data set [1], H-KWLGREDGSE-OH came in with an isolated mass of 168 mg and an isolated yield of 28.6%.

For the substance H-L-Arg-L-Leu-Gly-L-Arg-L-Gln-OH, in data set [1], the isolated mass was 204 mg and the isolated yield stood at 64.9%.

In data set [1], H-L-Glu-L-Asp-Gly-L-Ser-L-Glu-OH showed an isolated mass of 163 mg and an isolated yield of 60.7%.

In data set [1], “H-L-Trp-L-AIa-Gly-L-Arg-L-Glu-L-Asp-Gly-L-Ser-L-Glu-NH2” yielded an isolated mass of 159 mg and an isolated yield of 31.6%.

In data set [2], H-L-Trp-L-Leu-Gly-L-Arg-L-Glu-OH returned an isolated mass of 148 mg and an isolated yield of 44.9%.

With H-L-Trp-L-Leu-Gly-L-Arg-OH, in data set [1], the isolated mass was determined as 52 mg and the isolated yield amounted to 19.4%.

In the case of H-LGREDGSE-OH, in data set [1], the isolated mass was determined as 220 mg and the isolated yield was 51.1%.

Turning to H-MWLGRED-OH, in data set [1], the isolated mass came out at 210 mg and the isolated yield is given as 46.4%.

In data set [1], H-RLGRQDG-NH2 gave an isolated mass of 240 mg and an isolated yield of 60.0%.

In data set [1], H-RLGRQDG-OH gave an isolated mass of 260 mg and an isolated yield of 65.0%.

In data set [1], H-RLGRQDK-OH registered an isolated mass of 309 mg and an isolated yield of 70.9%.

As to H-WAGRED-OH, in data set [1], the isolated mass worked out at 77 mg and the isolated yield came to 21.0%.

In data set [2], H-WAGREDGSE-OH had an isolated mass of 285 mg and an isolated yield of 56.7%.

Regarding H-WGGREDGSE-OH, in data set [1], the isolated mass is given as 147 mg and the isolated yield is 29.6%.

On to H-WIIREDGSE-OH, for which, in data set [1], the isolated mass stood at 326 mg and the isolated yield is recorded as 59.1%.

In data set [2], H-WLGKEDGSE-OH registered an isolated mass of 203 mg and an isolated yield of 39.8%.

In data set [1], H-WLGLEDGSE-OH came in with an isolated mass of 317 mg and an isolated yield of 63.1%.

In data set [1], H-WLGQRS-OH displayed an isolated mass of 141 mg and an isolated yield of 37.8%.

Regarding H-WLGRED-NH2, in data set [1], the isolated mass amounted to 152 mg and the isolated yield was determined as 39.3%.

For H-WLGRED-OH, in data set [2], the isolated mass is on record as 241 mg and the isolated yield is reported as 62.2%.

With H-WLGREDG-OH, in data set [2], the isolated mass is listed as 107 mg and the isolated yield is recorded as 25.7%.

In data set [2], H-WLGREDGAE-OH had an isolated mass of 266 mg and an isolated yield of 51.5%.

In data set [1], H-WLGREDGCE-OH displayed an isolated mass of 199 mg and an isolated yield of 37.4%.

For the substance H-WLGREDGLL-NH2, in data set [1], the isolated mass is reported as 102 mg and the isolated yield is 19.3%.

In data set [2], H-WLGREDGS-OH had an isolated mass of 184 mg and an isolated yield of 40.0%.

In data set [2], H-WLGREDGSD-OH displayed an isolated mass of 335 mg and an isolated yield of 64.0%.

Consider H-WLGREDGSE-NH2, for which, in data set [1], the isolated mass came to 270 mg and the isolated yield amounted to 51.6%.

In data set [2], H-WLGRENGSE-OH came in with an isolated mass of 355 mg and an isolated yield of 67.8%.

On to H-WLGRGDGSE-OH, for which, in data set [1], the isolated mass came out at 182 mg and the isolated yield was determined as 37.3%.

Regarding H-WLGRQDGSE-OH, in data set [2], the isolated mass is 194 mg and the isolated yield stood at 37.1%.

In data set [1], H-WLGRQNGSQ-NH2 yielded an isolated mass of 386 mg and an isolated yield of 73.9%.

For H-WLGR[dE]DGSE-OH, in data set [1], the isolated mass was 180 mg and the isolated yield was determined as 36.0%.

In the case of H-WLG[dR]EDGSE-OH, in data set [1], the isolated mass was found to be 274 mg and the isolated yield was 52.3%.

On to H-WPREDGSE-OH, for which, in data set [2], the isolated mass was determined as 122 mg and the isolated yield is reported as 25.0%.

Turning to H-WVREDGSE-OH, in data set [1], the isolated mass is 323 mg and the isolated yield is given as 66.1%.

In the case of H-W[dL]GRED-OH, the step yield in data set [2] is 96.4%.

In data set [1], H-W[dL]GREDGSE-OH came in with an isolated mass of 288 mg and an isolated yield of 55.0%.

In the case of H-[dW]LGRED-OH, the step yield in data set [2] came out at 100%.

Consider PEPTIDE1{W.L.G.R.G.D.G.S.E}$$$$V2.0, for which, in data set [1], the isolated mass was 50 mg and the isolated yield is 16.1%.

Consider “PEPTIDE1{W.L.G.R.Q.N.G.S.Q.[am]}$$$$V2.0”, for which, in data set [2], the isolated mass worked out at 108 mg and the isolated yield stood at 19.6%.

In data set [1], PEPTIDE1{W.L.G.R}$$$$V2.0 yielded an isolated mass of 333 mg and an isolated yield of 63.5%.

Turning to “PEPTIDE1{[Fmoc].W.L.G.R.E.D.G.S.E}$$$$V2.0”, in data set [2], the isolated mass worked out at 261 mg and the isolated yield was 50.0%.

In data set [1], PEPTIDE1{[Fmoc].W.L.G.R.E.D}$$$$V2.0 came in with an isolated mass of 307 mg and an isolated yield of 58.2%.

With PEPTIDE1{[Fmoc].W.L.G.R.E.[dD]}$$$$V2.0, in data set [1], the isolated mass worked out at 100 mg and the isolated yield worked out at 20.3%.

In data set [1], PEPTIDE1{[Fmoc].W.L.G.R.[dE].D}$$$$V2.0 had an isolated mass of 152 mg and an isolated yield of 32.6%.

In data set [1], PEPTIDE1{[Fmoc].W.[dL].G.R.E.D}$$$$V2.0 returned an isolated mass of 405 mg and an isolated yield of 77.3%.

As for PEPTIDE1{[Fmoc].[dW].L.G.R.E.D}$$$$V2.0, in data set [1], the isolated mass stood at 268 mg and the isolated yield stood at 51.1%.

(Values after US5097013A (Kao Corporation, priority 1988, dated 1992).)
